Results as given in paper PMC9102066, “Cloning and Functional Characterization of Dog OCT1 and OCT2: Another Step in Exploring Species Differences in Organic Cation Transporters” (International Journal of Molecular Sciences, 2022).

What was measured:
dog OCT2 = experiment: Uptake in HEK293 cells stably overexpressing dog OCT2; format: in vitro ADME
Text: Figure 6 Comparative characterization of substrate uptake between dog and human OCT2 orthologs.
(§1) Cells were passaged twice a week.
(§2) Intracellular substrate concentrations were quantified using LC-MS/MS.

dog OCT1 = experiment: Uptake in HEK293 cells stably overexpressing dog OCT1; settings: for CLint ± SEM, dOCT1: intrinsic clearance = vmax divided by KM for each experiment
Experimental: The total uptake is shown for the overexpressing and control cells (left hand side). OCT1-mediated uptake (right hand side) was calculated by subtracting the uptake of control cells (pcDNA5) from the uptake of OCT1-overexpressing cells. The means and standard errors of the means are shown for at least three independent experiments.
For generation and characterization, see the Supplementary Methods, Figure S7, and [29, 47]. Cells were cultured in Dulbecco’s Modified Eagle’s Medium (DMEM) supplemented with 10% FBS, 100 U/mL penicillin, and 100 µg/mL streptomycin at 37 °C and 5% CO2. Cells were passaged twice a week.
At 48 h prior to the experiment, 6 × 10^5 cells were seeded per well in 12-well plates pre-coated with poly-D-lysine.
Cellular uptake experiments were performed at 37 °C and pH 7.4 using Hanks’ Buffered Salt Solution (HBSS) supplemented with 10 mM HEPES (referred to as HBSS+ in the following). Cells were washed with 1 mL pre-warmed (37 °C) HBSS+ and uptake was initiated by adding 400 µL of pre-warmed HBSS+ containing the substrate. Uptake was allowed for exactly 2 min and stopped by adding 2 mL ice-cold HBSS+. Cells were washed twice with 2 mL ice-cold HBSS+ then lysed with 80% acetonitrile supplemented with internal standard. The intracellularly accumulated substrate concentrations were measured using LC-MS/MS as described in the following and normalized to the amount of total protein in the samples as measured using the bicinchoninic acid assay.
Intracellular substrate concentrations were quantified using LC-MS/MS. […] The pellet was reconstituted with 200 µL 0.1% formic acid and between 5 and 10 µL was injected into the LC-MS/MS system (Table S2).
An API4000 QTRAP tandem mass spectrometer with ESI interface (AB SCIEX, Darmstadt, Germany) coupled to a Shimadzu Nexera X2 UHPLC system with LC 30AD pumps and SiL 30AC autosampler (Shimadzu, Duisburg, Germany) was used for analysis.
Intrinsic clearance CLint was calculated by dividing vmax by KM for each experiment. Kinetic parameters were compared between OCT1 orthologs using an ANOVA followed by Tukey’s honestly significant difference post hoc comparisons in SPSS Statistics version 28 (SPSS Inc., IBM, Chicago, IL, USA).

mouse OCT1 = molecular target: T1, mouse OCT1 (Mus musculus, UniProt O08966); experiment: Uptake in HEK293 cells stably overexpressing mouse OCT1; format: in vitro ADME
T1 construct: expressed in transfected cells; host or cells: HEK293 (Flp-In system)
T1 sequence (O08966 1-556): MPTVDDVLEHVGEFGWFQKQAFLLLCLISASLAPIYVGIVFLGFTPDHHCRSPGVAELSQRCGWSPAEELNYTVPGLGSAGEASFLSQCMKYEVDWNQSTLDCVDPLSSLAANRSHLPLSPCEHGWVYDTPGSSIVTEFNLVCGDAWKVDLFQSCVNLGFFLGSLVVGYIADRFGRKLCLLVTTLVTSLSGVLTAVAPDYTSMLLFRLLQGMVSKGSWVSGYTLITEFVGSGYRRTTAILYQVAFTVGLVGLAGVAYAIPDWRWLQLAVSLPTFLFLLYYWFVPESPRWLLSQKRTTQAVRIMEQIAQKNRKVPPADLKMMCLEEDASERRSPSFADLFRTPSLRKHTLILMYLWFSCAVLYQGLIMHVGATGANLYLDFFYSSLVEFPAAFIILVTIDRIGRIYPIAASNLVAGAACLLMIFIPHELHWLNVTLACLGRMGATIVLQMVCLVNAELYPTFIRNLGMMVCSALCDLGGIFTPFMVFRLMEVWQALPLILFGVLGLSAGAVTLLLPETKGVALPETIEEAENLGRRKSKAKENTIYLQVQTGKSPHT
Text: as §1, §2

human OCT2 = molecular target: T2, human OCT2 (Homo sapiens, UniProt O15244); experiment: Uptake in HEK293 cells stably overexpressing human OCT2; format: in vitro ADME; settings: intrinsic clearance = vmax divided by KM for each experiment
T2 construct: expressed in transfected cells; host or cells: HEK293 (Flp-In system)
T2 sequence (O15244 1-555): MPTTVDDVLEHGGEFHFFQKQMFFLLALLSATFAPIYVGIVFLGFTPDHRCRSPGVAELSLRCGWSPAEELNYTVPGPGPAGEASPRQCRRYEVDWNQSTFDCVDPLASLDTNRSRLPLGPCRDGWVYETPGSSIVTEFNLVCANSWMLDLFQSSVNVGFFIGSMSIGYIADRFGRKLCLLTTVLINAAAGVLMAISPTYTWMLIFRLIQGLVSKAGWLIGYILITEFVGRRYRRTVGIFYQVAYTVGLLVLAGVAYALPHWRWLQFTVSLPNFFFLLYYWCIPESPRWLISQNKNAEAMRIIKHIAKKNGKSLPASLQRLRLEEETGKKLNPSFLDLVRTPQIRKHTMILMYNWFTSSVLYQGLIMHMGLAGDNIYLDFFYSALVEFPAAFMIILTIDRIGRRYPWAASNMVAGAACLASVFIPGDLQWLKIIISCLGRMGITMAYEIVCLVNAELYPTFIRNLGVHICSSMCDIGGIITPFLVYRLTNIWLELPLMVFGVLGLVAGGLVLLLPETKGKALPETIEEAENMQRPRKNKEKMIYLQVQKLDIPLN
Text: as §1, §2

human OCT1 = molecular target: T3, human OCT1 (Homo sapiens, UniProt O15245); experiment: Uptake in HEK293 cells stably overexpressing human OCT1; format: in vitro ADME; settings: intrinsic clearance = vmax divided by KM for each experiment
T3 construct: expressed in transfected cells; host or cells: HEK293 (Flp-In system)
T3 sequence (O15245 1-554): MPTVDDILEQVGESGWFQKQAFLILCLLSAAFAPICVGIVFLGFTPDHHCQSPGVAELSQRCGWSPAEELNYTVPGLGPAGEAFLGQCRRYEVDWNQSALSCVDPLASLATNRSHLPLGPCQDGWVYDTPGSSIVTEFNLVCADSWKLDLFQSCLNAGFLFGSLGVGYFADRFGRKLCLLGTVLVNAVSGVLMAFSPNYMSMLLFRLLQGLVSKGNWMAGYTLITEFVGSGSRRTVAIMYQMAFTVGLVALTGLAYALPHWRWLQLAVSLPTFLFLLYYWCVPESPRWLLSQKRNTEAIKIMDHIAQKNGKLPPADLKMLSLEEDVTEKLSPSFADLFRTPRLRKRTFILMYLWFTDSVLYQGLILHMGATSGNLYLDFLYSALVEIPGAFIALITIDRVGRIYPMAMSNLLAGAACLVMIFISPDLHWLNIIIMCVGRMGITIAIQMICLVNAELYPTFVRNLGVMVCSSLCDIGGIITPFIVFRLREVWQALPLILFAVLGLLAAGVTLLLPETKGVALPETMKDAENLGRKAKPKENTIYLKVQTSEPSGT
Text: as §1, §2

[1] = intrinsic clearance = vmax divided by KM for each experiment
[2] = OCT1-mediated uptake, HEK293, 2 min, 37 °C, pH 7.4, control cells subtracted

## CC(C)[N+]1(C)[C@@H]2CC[C@H]1C[C@@H](OC(=O)C(CO)c1ccccc1)C2 (some centres unmarked) [Ipratropium, Ipratropium bromide]
Dog OCT2; OCT2-mediated uptake, HEK293, 2 min, 37 °C, pH 7.4, control cells subtracted
  vmax ± SEM, dOCT2: 93.2 ± 12.6 pmol × min^−1 × mg Protein^−1
Dog OCT2; dog, pH 7.4, OCT2-mediated uptake, HEK293, 2 min, Michaelis–Menten fit, read-out: KM ± SEM, dOCT2
  Km at 2 min: 0.35 ± 0.02 µM
Dog OCT2; [1]
  CLint ± SEM, dOCT2: 265 ± 35.3 µL × min^−1 × mg Protein^−1
Dog OCT1; [2]
  vmax ± SEM, dOCT1: 113 ± 1.43 pmol × min^−1 × mg Protein^−1
Dog OCT1; dog, pH 7.4
  Km at 2 min: 1.02 ± 0.2 µM
Dog OCT1
  CLint ± SEM, dOCT1: 122 ± 28.1 µL × min^−1 × mg Protein^−1
Dog OCT1; listed as ipratropium
  CLint ± SEM, dOCT1: 80.5 µL × min^−1 × mg Protein^−1
Mouse OCT1; [2]
  vmax ± SEM, mOCT1: 309 ± 18.8 pmol × min^−1 × mg Protein^−1
Mouse OCT1; [1]
  CLint ± SEM, mOCT1: 83.6 ± 10.4 µL × min^−1 × mg Protein^−1
Human OCT2
  CLint ± SEM, hOCT2: 477 ± 31.9 µL × min^−1 × mg Protein^−1
Human OCT1
  CLint ± SEM, hOCT1: 75.7 ± 6.33 µL × min^−1 × mg Protein^−1
